Among the data in article doi:10.1101/2020.06.22.164467 are binding values, retold here.

Sequences of proteins named here, by UniProt entry; tags and fusion partners are left off. Residues count along the entry.
UniProt P02545, residues 1-646: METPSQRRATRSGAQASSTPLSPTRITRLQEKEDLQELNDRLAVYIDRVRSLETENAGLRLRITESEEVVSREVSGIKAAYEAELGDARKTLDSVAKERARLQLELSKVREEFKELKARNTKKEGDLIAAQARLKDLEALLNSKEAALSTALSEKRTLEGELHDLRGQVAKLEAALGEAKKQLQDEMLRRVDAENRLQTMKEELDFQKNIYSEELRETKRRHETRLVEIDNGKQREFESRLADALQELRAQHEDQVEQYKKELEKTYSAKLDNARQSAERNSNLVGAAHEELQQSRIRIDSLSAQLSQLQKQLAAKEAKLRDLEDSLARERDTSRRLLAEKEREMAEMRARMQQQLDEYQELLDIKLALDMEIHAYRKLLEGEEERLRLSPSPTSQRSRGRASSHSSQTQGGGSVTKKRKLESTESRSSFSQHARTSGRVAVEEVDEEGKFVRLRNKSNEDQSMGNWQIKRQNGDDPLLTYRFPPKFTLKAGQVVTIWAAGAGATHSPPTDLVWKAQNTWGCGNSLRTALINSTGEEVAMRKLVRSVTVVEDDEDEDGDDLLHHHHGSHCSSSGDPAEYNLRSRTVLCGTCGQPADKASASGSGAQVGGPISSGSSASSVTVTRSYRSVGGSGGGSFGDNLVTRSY

These are yes or no findings as the source states them, for the method shown. Binding seen in cells or lysates may run through a third protein. Some results given as binding are weak or reduced against the parent protein; the word gives no strength.

This assay concerns the target lamin A (human (endogenous in Caco-2)) (UniProt P02545). Put plainly: co-IP.

B1: lamina-associated polypeptide 2α (LAP2α) (protein, UniProt P42166 1-694)
chain: MPEFLEDPSVLTKDKLKSELVANNVTLPAGEQRKDVYVQLYLQHLTARNRPPLPAGTNSKGPPDFSSDEEREPTPVLGSGAAAAGRSRAAVGRKATKKTDKPRQEDKDDLDVTELTNEDLLDQLVKYGVNPGPIVGTTRKLYEKKLLKLREQGTESRSSTPLPTISSSAENTRQNGSNDSDRYSDNEEGKKKEHKKVKSTRDIVPFSELGTTPSGGGFFQGISFPEISTRPPLGSTELQAAKKVHTSKGDLPREPLVATNLPGRGQLQKLASERNLFISCKSSHDRCLEKSSSSSSQPEHSAMLVSTAASPSLIKETTTGYYKDIVENICGREKSGIQPLCPERSHISDQSPLSSKRKALEESESSQLISPPLAQAIRDYVNSLLVQGGVGSLPGTSNSMPPLDVENIQKRIDQSKFQETEFLSPPRKVPRLSEKSVEERDSGSFVAFQNIPGSELMSSFAKTVVSHSLTTLGLEVAKQSQHDKIDASELSFPFHESILKVIEEEWQQVDRQLPSLACKYPVSSREATQILSVPKVDDEILGFISEATPLGGIQAASTESCNQQLDLALCRAYEAAASALQIATHTAFVAKAMQADISQAAQILSSDPSRTHQALGILSKTYDAASYICEAAFDEVKMAAHTMGNATVGRRYLWLKDCKINLASKNKLASTPFKGGTLFGGEVCKVIKKRGNKH
B1: the binding entry was “binds”.
